Binding data for three molecules are collected here from PMC5489075, “Purification and characterisation of the fission yeast Ndc80 complex” (Protein Expression and Purification, 2017).

These are yes or no findings as the source states them, for the method shown. For some of these results: Binding seen in cells or lysates may run through a third protein. Some binding calls cover weakened binding; strength is not graded here. Where a sequence is shown, tags or fusion partners need not be part of it.

The target of test [1] is T1, 6His-Z-TEV-Spc25-eGFP (S. pombe) (UniProt Q10430).
T1 sequence: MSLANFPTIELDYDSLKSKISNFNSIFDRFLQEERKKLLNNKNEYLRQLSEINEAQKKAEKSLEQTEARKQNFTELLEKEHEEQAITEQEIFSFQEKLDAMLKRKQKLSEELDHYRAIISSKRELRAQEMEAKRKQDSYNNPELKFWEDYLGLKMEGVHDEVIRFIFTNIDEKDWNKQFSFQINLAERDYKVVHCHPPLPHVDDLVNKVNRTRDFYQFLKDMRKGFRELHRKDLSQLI
Briefly: pull-down; co-purification on Protino Ni-TED resin of two chains co-expressed in E. coli, only one of them with 6His; Ndc80 buffer (50 mM potassium phosphate pH7.2, 300 mM KCl, 10% glycerol, 2 mM MgCl2, 1 mM beta-mercaptoethanol), 4 °C, elution with 300 mM imidazole.

The target in test [2] is T2, 6His-Z-TEV-Ndc80/Z-TEV-Nuf2 sub-complex (S. pombe) (UniProt Q10198+Q10173).
T2 sequence 1: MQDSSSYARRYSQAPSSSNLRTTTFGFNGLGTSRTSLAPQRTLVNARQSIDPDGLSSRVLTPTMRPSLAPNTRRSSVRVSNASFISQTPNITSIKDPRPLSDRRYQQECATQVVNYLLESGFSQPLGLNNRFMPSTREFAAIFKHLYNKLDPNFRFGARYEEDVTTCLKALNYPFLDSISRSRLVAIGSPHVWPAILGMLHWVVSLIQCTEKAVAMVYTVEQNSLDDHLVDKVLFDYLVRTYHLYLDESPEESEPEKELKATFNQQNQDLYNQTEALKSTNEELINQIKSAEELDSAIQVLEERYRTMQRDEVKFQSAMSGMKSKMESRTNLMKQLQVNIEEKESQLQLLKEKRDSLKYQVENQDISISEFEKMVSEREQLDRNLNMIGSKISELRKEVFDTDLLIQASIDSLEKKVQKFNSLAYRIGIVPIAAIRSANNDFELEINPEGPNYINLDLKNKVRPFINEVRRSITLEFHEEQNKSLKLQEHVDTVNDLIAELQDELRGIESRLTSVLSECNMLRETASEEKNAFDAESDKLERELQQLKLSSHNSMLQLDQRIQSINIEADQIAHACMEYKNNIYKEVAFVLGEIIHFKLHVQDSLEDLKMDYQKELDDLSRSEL
T2 sequence 2: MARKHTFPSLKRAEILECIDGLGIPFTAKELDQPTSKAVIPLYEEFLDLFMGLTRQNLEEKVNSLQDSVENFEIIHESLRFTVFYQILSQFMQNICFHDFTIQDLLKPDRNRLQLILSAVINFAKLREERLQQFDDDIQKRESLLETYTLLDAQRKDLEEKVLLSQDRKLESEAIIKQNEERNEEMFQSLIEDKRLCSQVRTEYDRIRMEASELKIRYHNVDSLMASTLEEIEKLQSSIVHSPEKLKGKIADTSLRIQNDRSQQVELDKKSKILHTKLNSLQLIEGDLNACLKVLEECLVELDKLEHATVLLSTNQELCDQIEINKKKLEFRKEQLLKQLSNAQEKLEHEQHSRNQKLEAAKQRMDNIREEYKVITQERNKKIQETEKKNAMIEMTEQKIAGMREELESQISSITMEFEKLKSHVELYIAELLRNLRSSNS
In words: pull-down; equal amounts (10 mg) of the two purified sub-complexes mixed in Ndc80 buffer, 4 °C, 16 h; assembled complex held on Protino Ni-TED resin by 6His-Z-Ndc80 and eluted; both purified.

The target in test [3] is T3, Ndc80-Nuf2 sub-complex, 6His-Z and Z-tag removed (S. pombe) (UniProt Q10198+Q10173).
T3 sequence 1: T2 sequence 1
T3 sequence 2: T2 sequence 2
In words: SEC; Superose 6 10/300 GL in ice-cold Ndc80 buffer, after TEV removal of 6His-Z and Z-tag; fractions on SDS-PAGE, densitometry of bands; both purified. A general note: In gel filtration, larger molecules generally elute earlier.

Test [4] has as its target T4, 6His-Z-TEV-Ndc80 (S. pombe) (UniProt Q10198).
T4 sequence: T2 sequence 1
Briefly: pull-down; co-purification on Protino Ni-TED resin of two chains co-expressed in E. coli, only one of them with 6His; Ndc80 buffer (50 mM potassium phosphate pH7.2, 300 mM KCl, 10% glycerol, 2 mM MgCl2, 1 mM beta-mercaptoethanol), 4 °C, elution with 300 mM imidazole.

B1: Z-TEV-Spc24-eGFP (protein, UniProt Q9UST6 1-198)
chain: MSDSPIELMRSTLAGFQIAPDVKTISNIQDIRAQIQSFREKELEGSQTKFKVLSRKLEISTQAMESLKQTAESSQHAEEILSREKEKFRIAKLLNITENEIMSLESQLQKMKEQLLQLEERENTSEDICQSEENANMLKLNFYHSLGFDLETAENTGNKRVIIHTENDLQTVQISNKYSPYFYSNYFWDLLDDSKDKK
For B1, the binding entry in test [1] is recorded as “binds”.

B2: Spc24-eGFP/Spc25-eGFP sub-complex (complex, UniProt Q9UST6 1-198; Q10430 1-238)
chain 1: B1 chain
chain 2: T1 sequence
For B2, the binding entry in test [2] and in test [3] was “binds” each time.

B3: Z-TEV-Nuf2 (protein, UniProt Q10173 1-441)
chain: T2 sequence 2
Consider B3, for which the binding entry in test [4] is given as “binds”.
